Binding data for three substances are collected here from paper PMC7374170, “TRIB3-EGFR interaction promotes lung cancer progression and defines a therapeutic target” (Nature Communications, 2020).

The chains behind the UniProt entries cited, without tags or fusion partners.
UniProt Q96RU7: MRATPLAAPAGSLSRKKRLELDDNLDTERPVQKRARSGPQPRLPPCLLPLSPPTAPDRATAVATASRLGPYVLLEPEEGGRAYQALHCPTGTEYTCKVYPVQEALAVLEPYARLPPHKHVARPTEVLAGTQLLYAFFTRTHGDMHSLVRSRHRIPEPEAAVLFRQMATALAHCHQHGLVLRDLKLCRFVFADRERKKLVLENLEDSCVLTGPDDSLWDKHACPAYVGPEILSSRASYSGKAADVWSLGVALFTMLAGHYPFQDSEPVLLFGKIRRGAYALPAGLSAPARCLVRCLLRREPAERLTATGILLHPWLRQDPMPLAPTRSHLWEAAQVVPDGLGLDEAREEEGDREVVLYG

Assay [1] has as its target protein kinase C alpha (PKCα), endogenous (human (endogenous in A549)) (UniProt P17252). Nature of the assay: co-IP; protein extracts from A549 cells, IP with anti-TRIB3, anti-EGFR or anti-PKCα Abs individually, detected with indicated Abs.
The target of another assay is HA-tagged TRIB3 (UniProt Q96RU7). Kind of assay: co-IP; mapping with deletion mutants (Fig. 3g-i); cells and precipitating antibody not told.
The target in assay [2] is TRIB3, endogenous (human (endogenous in A549)) (UniProt Q96RU7). Kind of assay: co-IP; protein extracts from A549 cells, IP with anti-TRIB3, anti-EGFR or anti-PKCα Abs individually, detected with indicated Abs.
Assay [3] deals with epidermal growth factor receptor (EGFR), endogenous (human (endogenous in A549)) (UniProt P00533). Described as above.

No constants are given. Whether binding was seen depends on the method and setting. In cells and extracts the contact can be indirect. Some results given as binding are weak or reduced against the parent protein; the word gives no strength.

In the case of “epidermal growth factor receptor (EGFR), endogenous (from UniProt P00533 25-1210)”, the binding entry in assay [1] is recorded as “binds”. Turning to “PKCα, ectopically expressed (from UniProt P17252 1-672) (enzyme)”, the binding entry in the assay with HA-tagged TRIB3 is given as “binds”. Take “protein kinase C alpha (PKCα), endogenous (from UniProt P17252 1-672) (enzyme)”: the binding result in assay [2] and in assay [3] was “binds” throughout.
